# According to US20240376194A1:
# Sequences of proteins named here, by UniProt entry; tags and fusion partners are left off. Residues count along the entry.
# UniProt Q9NYJ7, residues 27-492: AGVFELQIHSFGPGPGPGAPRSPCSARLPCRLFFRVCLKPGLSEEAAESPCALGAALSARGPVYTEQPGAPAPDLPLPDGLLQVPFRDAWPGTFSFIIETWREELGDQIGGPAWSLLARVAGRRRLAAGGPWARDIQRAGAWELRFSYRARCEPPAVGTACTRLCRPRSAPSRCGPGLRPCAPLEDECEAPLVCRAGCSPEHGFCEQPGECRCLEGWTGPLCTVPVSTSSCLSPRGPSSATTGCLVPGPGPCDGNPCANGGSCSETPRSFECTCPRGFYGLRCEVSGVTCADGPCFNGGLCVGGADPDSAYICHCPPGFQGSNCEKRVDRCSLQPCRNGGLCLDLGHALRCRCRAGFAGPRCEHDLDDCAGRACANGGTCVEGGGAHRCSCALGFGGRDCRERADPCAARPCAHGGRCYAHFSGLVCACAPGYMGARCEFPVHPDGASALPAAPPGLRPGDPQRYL
# Numbering of substitutions follows the chain as printed. No constants are given. Whether binding was seen depends on the method and setting. Some entries that bind do so weakly or less than the wild type.
# B1: WT1156-P3R2-1C2 (VHH)
# VHH: EVQLVESGGGLVQTGDSLRLSCAASGLTFSTATVGWFRQAPGKERDLIAAIPAYYSTYYASSVKGRFTISRDNAKNTVYLQMNSLKPEDTGVYYCAADDTPSPSRSPFYKHRGQGTQVTVSS
# B2: WT1156-P3R2-1H6 (VHH)
# VHH: QVQLVESGGGLVQAGGSLRLSCAASGRTFRSYAMGWFRQAPGKEREFVAAISWIGGGTYYADSVKGRFTISGDNAKNTLYLQMNSLKPEDTAVYYCAASSLLRHGHMFEESDYWGQGTQVTVSS
# B3: WT1156-P8R2-1H1 (VHH)
# VHH: EVDLVESGGGLVQPGGSLRLSCAASGRTASRYSMVWFRQAPGQEREFVGGNSAHDGRSAYTDSVKGRFTFSRDNAKNTGYLQMNSLRPDDTAVYYCAADTNPPYGPPWSTPSEYEYWGHGTQVTVSS
# B4: WT1156-P3R2-1C9 (VHH)
# VHH: B3 VHH with E1Q, D3Q, P14A, A29T, T61A, N84S
# What was measured:
# [1] = target: WT115-hPro1.ECD.His (human) (UniProt Q9NYJ7); experiment: competition ELISA on immobilized WT115-hPro1.ECD.His; VHH titrated 0.00013-10 nM against 0.02 nM WT1156-P3R2-1C2-uIgG1, whose binding is detected
# [2] = target: WT115-hPro1.ECD.His (human) (UniProt Q9NYJ7); experiment: competition ELISA on immobilized WT115-hPro1.ECD.His; VHH titrated 0.00013-10 nM against 0.02 nM WT1156-P3R2-1H6-uIgG1, whose binding is detected
# [3] = target: WT115-hPro1.ECD.His (human) (UniProt Q9NYJ7); experiment: competition ELISA on immobilized WT115-hPro1.ECD.His; VHH titrated 0.00013-10 nM against 0.02 nM WT1156-P8R2-1H1-uIgG1, whose binding is detected
Binder,binding [1],binding [2],binding [3]
B1,binds,,
B2,,binds,
B3,,binds,binds
B4,,binds,binds
